Measurements taken from the supplement of paper PMC7024190.
Counter-ions that a name gives are not always drawn. Some of the results follow. This data set is noisy: repeats of one test often differ as much as different tests do.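 The cells were human embryonic kidney cells carrying a Renilla luciferase gene, driven by the HSV-TK promoter, on a plasmid put in briefly by transfection. This is the first-round screen of about ten thousand compounds, looking for ones that raise reporter output.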

Test system: HEK 293FT
Assay: log relative Renilla luciferase luminescence (reporter expression vs reference, reference not stated) (log (base not stated)); higher = higher recombinant reporter expression
Details: 10 µM; time after transfection 48 h

Structure (SMILES) | log
O=C(O)c1cn(-c2ccc(F)cc2)c2cc(N3CCNCC3)c(F)cc2c1=O [Sarafloxacin] | 0.104
O=C1c2c(O)cccc2Cc2cccc(O)c21 [Anthralin] | 0.0344
COc1cc(C(=O)OCCCN2CCCN(CCCOC(=O)c3cc(OC)c(OC)c(OC)c3)CC2)cc(OC)c1OC [Dilazep dihydrochloride] | 0.148
CN(C)CCCN1c2ccccc2Sc2ccc(C(F)(F)F)cc21 [Triflupromazine hydrochloride] | 0.102
CC(N/C(=N\C#N)Nc1ccncc1)C(C)(C)C (stereo not drawn) [Pinacidil] | 0.163
CCCCC(O)c1ccccc1 (stereo not drawn) [Fenipentol] | -0.0739
CCN(CC)CCOC(=O)C1(C2CCCCC2)CCCCC1 [Dicyclomine hydrochloride] | 0.0657
C=CC(N)CCC(=O)O (stereo not drawn) [Vigabatrin] | -0.0288
NS(=O)(=O)c1cc(C2(O)NC(=O)c3ccccc32)ccc1Cl (stereo not drawn) [Chlorthalidone] | -0.416
CCN[C@H]1CN(CCCOC)S(=O)(=O)c2sc(S(N)(=O)=O)cc21 [Brinzolamide] | 0.115
Cc1ncc(C[n+]2csc(CCO)c2C)c(N)n1 [Thiamine hydrochloride] | 0.205
CC(C)c1c(C(=O)Nc2ccccc2)c(-c2ccccc2)c(-c2ccc(F)cc2)n1CC[C@@H](O)C[C@@H](O)CC(=O)O [Atorvastatin] | 0.0657
CC(=O)OCC(=O)[C@@]1(O)CC[C@H]2[C@@H]3CCC4=CC(=O)CC[C@]4(C)[C@H]3[C@@H](O)C[C@@]21C [Cortisol acetate] | -0.0974
CC[N+](C)(CC)CCOC(=O)C1c2ccccc2Oc2ccccc21 [Methantheline bromide] | 0.0554
CCCCN(CCCC)CCCOC(=O)c1ccc(N)cc1 [Butacaine] | -0.222
COC(=O)Nc1nc2cc(C(=O)c3cccs3)ccc2[nH]1 [Nocodazole] | -0.106
Cc1ccc(C(=O)c2ccc(CC(=O)O)n2C)cc1 [Tolmetin sodium salt dihydrate] | 0.0467
CC(=O)OCC(=O)[C@@]1(O)CC[C@H]2[C@@H]3CCC4=CC(=O)CC[C@]4(C)[C@@]3(F)[C@@H](O)C[C@@]21C [Fludrocortisone acetate] | -0.271
Cc1cn[nH]c1 [Fomepizole] | 0.0437
CCCOc1cc(N)ccc1C(=O)OCCN(CC)CC [Propoxycaine hydrochloride] | 0.0437
OC(Cn1cncn1)(Cn1cncn1)c1ccc(F)cc1F [Fluconazole] | -0.0312
CC[N+](C)(C)c1cccc(O)c1 [Edrophonium chloride] | 0.00301
CN1CCC(=C2c3ccccc3C=Cc3ccccc32)CC1 [Cyproheptadine hydrochloride] | 0.0795

As a working copy, two of the compounds above:
Structure (SMILES) | log
CC(=O)OCC(=O)[C@@]1(O)CC[C@H]2[C@@H]3CCC4=CC(=O)CC[C@]4(C)[C@H]3[C@@H](O)C[C@@]21C [Cortisol acetate] | -0.0974
CC[N+](C)(CC)CCOC(=O)C1c2ccccc2Oc2ccccc21 [Methantheline bromide] | 0.0554
